{"source": "patent US20040038944A1", "about": "“Compositions and methods of preventing or reducing the risk or incidence of skeletal injuries in horses” (Merck & Co., Inc., priority 2000, published 2004)", "tested_on": "C-telopeptides (C-Tx)", "conditions": "below baseline; Groups 2-4 (18.75 mg every 7 days, 37.5 mg every 14 days, 75 mg every 28 days, i.v.); 56 days stall rest; placebo about 75% above baseline", "excerpt": "Bone metabolism is monitored using standard techniques, i.e. serum assays to determine levels of markers of bone turnover, bone resorption and bone formation and ultrasound is used to assess changes in bone density.\nMaterials and Methods: Sixteen healthy adult thoroughbred horses (eight mares and eight male castrates) which had previously been running at pasture for at least 4 months are used.\nThe horses are randomly allocated to 4 treatment groups of four horses, each containing two mares and two male castrates. Serum samples are collected and ultrasound measurements are taken on three occasions directly before commencement of stall rest. Assays are conducted on the serum samples to determine pre-confinement levels of C-telopeptides (C-Tx; a collagen breakdown product that is a marker of bone resorption); osteocalcin (a marker of bone turnover) and bone specific alkaline phosphatase (a marker of bone formation). Ultrasound is used to measure the speed of transmission of sound waves through the bone.\nStall rest is commenced the day of first treatment. Serum samples are taken twice weekly and ultrasound measurements are taken each 14 days for the 56 days of the study to monitor changes in bone metabolism markers and in bone density relative to pre-confinement values. At the end of the study the horses are returned to the pasture."}
{"smiles": "NCCCC(O)(P(=O)(O)O)P(=O)(O)O", "note": "[alendronate, 4-amino-1-hydroxybutylidene-1,1-bisphosphonic acid monosodium trihydrate]", "values": [{"measurement": "marker of bone resorption (C-Tx), change relative to baseline", "value": "about 75%"}]}
